The target in the assay is T1, EGFP-NRF2 (human) (UniProt Q16236).
T1 sequence: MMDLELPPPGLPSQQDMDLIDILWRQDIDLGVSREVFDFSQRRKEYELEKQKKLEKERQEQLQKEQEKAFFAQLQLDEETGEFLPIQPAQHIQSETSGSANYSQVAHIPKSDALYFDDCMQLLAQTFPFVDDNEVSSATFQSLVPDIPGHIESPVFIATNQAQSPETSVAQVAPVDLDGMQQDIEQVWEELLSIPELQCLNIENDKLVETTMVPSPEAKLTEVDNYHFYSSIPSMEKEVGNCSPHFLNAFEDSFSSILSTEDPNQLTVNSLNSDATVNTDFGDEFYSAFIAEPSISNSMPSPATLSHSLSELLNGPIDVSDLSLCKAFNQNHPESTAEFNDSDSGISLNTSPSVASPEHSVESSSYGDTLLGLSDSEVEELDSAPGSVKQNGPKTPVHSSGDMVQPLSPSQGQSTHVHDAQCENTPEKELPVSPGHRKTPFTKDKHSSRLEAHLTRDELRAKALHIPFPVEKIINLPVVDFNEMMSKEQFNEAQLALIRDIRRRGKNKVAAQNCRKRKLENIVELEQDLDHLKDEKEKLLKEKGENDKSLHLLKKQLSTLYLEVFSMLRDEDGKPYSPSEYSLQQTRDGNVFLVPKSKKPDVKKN
As to the kind of experiment: co-IP; HeLa cells co-transfected with EGFP-NRF2 and Myc-SPBP, harvested 20 hours post transfection; EGFP-NRF2 precipitated with Chromotek GFP-Trap; western blot. For orientation: A western blot detects proteins with antibodies after separation by electrophoresis.

The chains behind the UniProt entries cited, without tags or fusion partners.
UniProt Q9UGU0: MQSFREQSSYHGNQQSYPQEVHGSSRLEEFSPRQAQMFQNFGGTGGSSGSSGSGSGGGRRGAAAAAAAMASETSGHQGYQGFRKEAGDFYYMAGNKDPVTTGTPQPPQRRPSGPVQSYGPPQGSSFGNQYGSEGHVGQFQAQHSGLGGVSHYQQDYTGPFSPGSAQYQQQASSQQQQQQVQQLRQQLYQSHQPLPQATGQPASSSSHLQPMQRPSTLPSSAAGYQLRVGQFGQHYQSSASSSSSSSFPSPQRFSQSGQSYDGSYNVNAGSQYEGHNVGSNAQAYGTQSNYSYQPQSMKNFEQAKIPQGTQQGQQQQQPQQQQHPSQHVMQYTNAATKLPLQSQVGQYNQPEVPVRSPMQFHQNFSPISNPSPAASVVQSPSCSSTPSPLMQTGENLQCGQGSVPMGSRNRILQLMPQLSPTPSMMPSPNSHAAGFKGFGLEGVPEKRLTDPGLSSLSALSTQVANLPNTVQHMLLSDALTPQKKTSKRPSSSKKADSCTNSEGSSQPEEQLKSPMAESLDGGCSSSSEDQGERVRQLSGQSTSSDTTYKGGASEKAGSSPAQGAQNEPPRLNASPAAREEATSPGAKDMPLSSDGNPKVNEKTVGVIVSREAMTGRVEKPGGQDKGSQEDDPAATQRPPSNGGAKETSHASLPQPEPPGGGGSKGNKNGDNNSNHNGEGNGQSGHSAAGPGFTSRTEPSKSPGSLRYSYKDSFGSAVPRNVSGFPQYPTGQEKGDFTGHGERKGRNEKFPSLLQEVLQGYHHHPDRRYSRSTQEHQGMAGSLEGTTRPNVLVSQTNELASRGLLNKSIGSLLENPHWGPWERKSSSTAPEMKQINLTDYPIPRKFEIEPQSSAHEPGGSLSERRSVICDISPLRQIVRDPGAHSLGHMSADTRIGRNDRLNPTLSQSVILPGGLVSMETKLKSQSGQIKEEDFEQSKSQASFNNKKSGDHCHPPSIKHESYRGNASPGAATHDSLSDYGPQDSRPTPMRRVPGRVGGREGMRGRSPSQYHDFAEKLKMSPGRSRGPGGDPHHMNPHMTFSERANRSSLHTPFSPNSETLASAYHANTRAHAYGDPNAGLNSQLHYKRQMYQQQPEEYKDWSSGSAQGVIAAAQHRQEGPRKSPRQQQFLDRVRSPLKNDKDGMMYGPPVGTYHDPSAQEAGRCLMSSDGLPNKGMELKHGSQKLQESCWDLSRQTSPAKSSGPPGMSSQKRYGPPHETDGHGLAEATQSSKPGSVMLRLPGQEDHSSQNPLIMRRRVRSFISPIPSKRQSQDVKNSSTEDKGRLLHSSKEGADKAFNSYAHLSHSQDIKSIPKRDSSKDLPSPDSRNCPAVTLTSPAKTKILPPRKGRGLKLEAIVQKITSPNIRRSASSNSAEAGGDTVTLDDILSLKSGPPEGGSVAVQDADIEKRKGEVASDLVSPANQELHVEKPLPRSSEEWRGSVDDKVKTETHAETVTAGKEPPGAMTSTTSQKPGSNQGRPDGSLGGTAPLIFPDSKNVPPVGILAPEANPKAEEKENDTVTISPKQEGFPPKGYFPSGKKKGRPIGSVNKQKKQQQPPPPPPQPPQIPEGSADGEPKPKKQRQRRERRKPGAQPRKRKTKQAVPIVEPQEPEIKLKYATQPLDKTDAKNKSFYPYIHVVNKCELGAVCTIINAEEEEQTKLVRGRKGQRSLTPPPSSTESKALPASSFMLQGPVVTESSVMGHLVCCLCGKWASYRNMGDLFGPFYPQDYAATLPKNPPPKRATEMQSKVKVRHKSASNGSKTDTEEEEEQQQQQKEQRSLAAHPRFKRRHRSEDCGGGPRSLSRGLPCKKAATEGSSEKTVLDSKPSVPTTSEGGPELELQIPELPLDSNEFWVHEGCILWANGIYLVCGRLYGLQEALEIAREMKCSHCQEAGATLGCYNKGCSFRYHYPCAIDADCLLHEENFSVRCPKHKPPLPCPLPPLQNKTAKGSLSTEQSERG

These are yes or no findings as the source states them, for the method shown. In cells and extracts the contact can be indirect. Some binding calls cover weakened binding; strength is not graded here. Where a sequence is shown, tags or fusion partners need not be part of it.

Consider Myc-SPBP (from UniProt Q9UGU0 1-1960), for which the binding entry is given as “binds weakly”.

Source of the values: publication PMC3887019.
